The source of these data is article PMC7819943, “Rice protein-binding microarrays: a tool to detect cis-acting elements near promoter regions in rice”.

The other results are listed elsewhere or left out.

This assay has as its target T1, OsSMF1 (Oryza sativa, UniProt Q6ZLB0 1-436).
T1 sequence: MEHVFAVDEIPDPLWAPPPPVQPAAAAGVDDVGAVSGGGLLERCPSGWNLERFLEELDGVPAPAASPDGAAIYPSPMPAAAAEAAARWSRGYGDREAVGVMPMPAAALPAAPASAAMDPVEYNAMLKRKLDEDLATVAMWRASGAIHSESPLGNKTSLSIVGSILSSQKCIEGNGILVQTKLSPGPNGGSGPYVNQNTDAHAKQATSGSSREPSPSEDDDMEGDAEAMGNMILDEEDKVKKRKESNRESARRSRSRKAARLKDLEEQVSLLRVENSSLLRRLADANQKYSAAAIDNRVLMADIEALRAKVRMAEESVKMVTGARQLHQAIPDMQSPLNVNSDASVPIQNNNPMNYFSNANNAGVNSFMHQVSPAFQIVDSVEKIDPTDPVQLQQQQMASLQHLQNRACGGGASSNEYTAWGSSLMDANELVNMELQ
Description: protein-binding microarray (RPBM); PBS, 2% BSA, 51.3 ng/ul salmon testes DNA, 50 uM zinc acetate, 200 nM TF, 25 C, 1 h; high values mean tight binding. Conditions: protein: recombinant; tags: N-terminal polyhistidine and DsRed monomer fusion (pET32a); chain copies: 2; label: CyDye5-dUTP incorporated in the synthesized complementary strand; 3' TTTTT single-stranded linker to array surface; dsDNA, one strand shown. The gist of the method: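 Using Ni–NTA, transcription factors fused N-terminally to polyhistidine and DsRed were purified after expression in E. coli BL21-CodonPlus. These were incubated at 200 nM with a blocked, double-stranded custom Agilent array for 1 h at 25 °C in a buffer containing 50 µM zinc acetate, and the array was washed. The binding signal is per-feature fluorescence intensity (arbitrary units) on an Axon 4000B scanner.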
As for “TTTCAATATTTTAATTTATTGTTCAACTTCTAATAGATGTCGGAGTCACCTAGTGCAG”, the binding signal is 32800 fluorescence intensity (a.u.).
As for “CAAGTACCAGCGGCGCAAGTGCAACGCGGACTGCCCGCTCCGGAGTCACCTAGTGCAG”, the figure is 3870 fluorescence intensity (a.u.); as for “AAAGAGATTATGCGGATATGCCCTTGCAAACCGGGGCAGTCGGAGTCACCTAGTGCAG”, 49900 fluorescence intensity (a.u.); as for “GGGCCTAATATCAAATAATTAGAAGGGGTAAAGCTTCGAACGGAGTCACCTAGTGCAG”, 20800 fluorescence intensity (a.u.).
Turning to “CGAACGCGAGGCGCCTCCGATGTACACGTGGCGCCTCCTCCGGAGTCACCTAGTGCAG”, the binding signal was 25900 fluorescence intensity (a.u.).
For “TCCATTGTCCTCTCTGACTCTACTCCTCCCTCTCTCTGTCCGGAGTCACCTAGTGCAG”, the binding signal was 3720 fluorescence intensity (a.u.).
In the case of “AATCTTCCATTCGTGGCGGAATGCCACGTGAGTAGCTGCGCGGAGTCACCTAGTGCAG”, the binding signal was 8760 fluorescence intensity (a.u.).
As for “CGGTGCCAAGTCAAAGCCTAGCCAAGCCACGCGAGACGAGCGGAGTCACCTAGTGCAG”, the binding signal was 3900 fluorescence intensity (a.u.).
“TTCATTCCCAAATGCCACCCGGGCCCACATGTCAGCCTCACGGAGTCACCTAGTGCAG”: the binding signal was 4670 fluorescence intensity (a.u.).
For the sequence “TCGACCAGATCAATGAGTCATGTCAACAAATATTGCTGTACGGAGTCACCTAGTGCAG”, the binding signal is 4320 fluorescence intensity (a.u.).
As for “CTGTTTCGCTGACGTGACGCCTACGTGGCATCCCAGTCATCGGAGTCACCTAGTGCAG”, the figure is 40300 fluorescence intensity (a.u.); as for “TACAACACCATATATAATACCCGATGTGACACACCAAAACCGGAGTCACCTAGTGCAG”, 3580 fluorescence intensity (a.u.); as for “CCCTCGCCATTTCATTGGCCGTTTCGTGGCCATCCATCACCGGAGTCACCTAGTGCAG”, 3230 fluorescence intensity (a.u.).
On to “GAGGGACCCACCGTCCAGCAGGAGACTGCCATGTGGGCCCCGGAGTCACCTAGTGCAG”, for which the binding signal was 3740 fluorescence intensity (a.u.).
In the case of “TCCCATGGCGATCTCCGAGTCCCTCGCCCCGTCCATCGACCGGAGTCACCTAGTGCAG”, the binding signal is 17400 fluorescence intensity (a.u.).
For the sequence “GAGGAGGGAATTACTACCACCGGGTGACTCGTGGTTTCGTCGGAGTCACCTAGTGCAG”, the binding signal was 4450 fluorescence intensity (a.u.).
In the case of “TCCCACAATGATTCACCCCGATCCGGTTCGCCACGTCACCCGGAGTCACCTAGTGCAG”, the binding signal was 31600 fluorescence intensity (a.u.).
The value for “ACGGTCACGAAGCCGCCACGTCGCGCTTGTCACCACGCTGCGGAGTCACCTAGTGCAG” was 6560 fluorescence intensity (a.u.); that for “CCAAACATTTGATGACATCAAGTGCAAGTGCAACGGAGACCGGAGTCACCTAGTGCAG” was 3830 fluorescence intensity (a.u.); that for “ATCGTCAAAATGTGTGAAAACACAATCGACCACGTCAGGTCGGAGTCACCTAGTGCAG” was 11500 fluorescence intensity (a.u.).
For the sequence “GCGGTGACTTGGCTGTCGTCCCACTCAGCCTACCGCGTGTCGGAGTCACCTAGTGCAG”, the binding signal is 5270 fluorescence intensity (a.u.).
With “GGAGGCCACCCCTGTGCGTCTCGTCCCATCCAACTCATCTCGGAGTCACCTAGTGCAG”, the binding signal was 3670 fluorescence intensity (a.u.).
The value for “TCCGCGGTTATAGCTGCACAGTGTGGTGGCATTTGAGCTCCGGAGTCACCTAGTGCAG” was 3990 fluorescence intensity (a.u.); that for “CATATATATACACTTTGTATATGTATATAAAGTATATACACGGAGTCACCTAGTGCAG” was 5480 fluorescence intensity (a.u.).
As for “ATGCCACATAAACCCTACGTCAATGCCACGTGGGACAAAGCGGAGTCACCTAGTGCAG”, the binding signal was 22600 fluorescence intensity (a.u.).
Take “AAGTGCATTGGTGCTGGTGTGCAGTGCCAAAACAAATACACGGAGTCACCTAGTGCAG”: the binding signal was 15300 fluorescence intensity (a.u.).
Consider “ATAGTGATGGTCAGATGGACACGTGGAAATTGCTTACATTCGGAGTCACCTAGTGCAG”, for which the binding signal was 10900 fluorescence intensity (a.u.).
As to “GGCAGTAGTCATATGAATGCCTTCCCACGTATACTTCCATCGGAGTCACCTAGTGCAG”, the binding signal was 5410 fluorescence intensity (a.u.).
“TCCCTACGACACGCTCCTATTAGGTGCCGTTGTGCGGCGGCGGAGTCACCTAGTGCAG”: the binding signal was 3800 fluorescence intensity (a.u.).
Consider “CAGCGGCGGGTGGCCGCCGGGCTGCCATTGTCCGGGAGGCCGGAGTCACCTAGTGCAG”, for which the binding signal is 4000 fluorescence intensity (a.u.).
For the sequence “GGTGTCCATAAATCGTCACGCGCGCGAAACCATCCCGTCCCGGAGTCACCTAGTGCAG”, the binding signal is 23800 fluorescence intensity (a.u.).
The value for “GCGACCAGCTCGAACGGATGCGAGGCCACGCCACGGGTCCCGGAGTCACCTAGTGCAG” was 4220 fluorescence intensity (a.u.).
As for “TACTTCTGAAATCTCACGTGGCATTGGATTGACGTGTCATCGGAGTCACCTAGTGCAG”, the figure is 26800 fluorescence intensity (a.u.).
As for “CCAGCGCGCCTGTAGGCGGAGGAGGAGGCAGCCGCGTTGGCGGAGTCACCTAGTGCAG”, the figure is 3870 fluorescence intensity (a.u.); as for “CTGTTTGGGAAAATAACGGCGCCCATTTGTCCGAAGAGCTCGGAGTCACCTAGTGCAG”, 25300 fluorescence intensity (a.u.).
As to “TTCACAGCAAAGACTGCTTCTAAACCCCTTCCTGTTGGGGCGGAGTCACCTAGTGCAG”, the binding signal was 3630 fluorescence intensity (a.u.).
The value for “GAAGTGACCCGCACCCTTCTTTGCGACGAACCTGTCACTGCGGAGTCACCTAGTGCAG” was 3260 fluorescence intensity (a.u.); that for “AGCCCGCCTGTTGTGGGGCCCACATGTCTGGTACACTGTGCGGAGTCACCTAGTGCAG” was 3860 fluorescence intensity (a.u.); that for “CGAGGAATTGTACTCAGGTCATTCCGGTTTCCGTGGCTAACGGAGTCACCTAGTGCAG” was 3190 fluorescence intensity (a.u.).
The value for “TTGCCCGTTGCCGCCTTCATCGCTGACGCCTGCCACCGAGCGGAGTCACCTAGTGCAG” was 4730 fluorescence intensity (a.u.).
For the sequence “GAAGATGGTGATGAGGTGGCACGTGACTTGTCAAAGGGCTCGGAGTCACCTAGTGCAG”, the binding signal is 11600 fluorescence intensity (a.u.).
As for “CCTCTTCCTCCGCGGCGGCGCCGCCGCCGCCGAGTTCTCCCGGAGTCACCTAGTGCAG”, the figure is 3510 fluorescence intensity (a.u.).
